These are yes or no findings as the source states them, for the method shown. In cells and extracts the contact can be indirect. Some results given as binding are weak or reduced against the parent protein; the word gives no strength.
Tests used:
Experiment in all cases: co-IP; nuclear extract of intestinal crypt cells of WT or p300 S89A mice; 100-500 ug nuclear protein in CoIP buffer (25 mM Tris-HCl pH 8.0, 1% NP40, 5% glycerol, 150 mM NaCl, 1 mM EDTA, 5 mM DTT); anti-CBP, anti-p300, anti-14-3-3ε or normal IgG overnight at 4 °C, Dynabeads Protein A; immunoblot for β-catenin, p300 or 14-3-3ε, densitometry
[1] = molecular target: p300 (Kat3B/E1A-binding protein, 300 kDa), wild type mouse (mouse (endogenous in intestinal crypt cells)) (UniProt B2RWS6)
[2] = molecular target: CBP (Kat3A/CREBBP, cAMP response element binding protein (CREB)-binding protein) (mouse (endogenous in intestinal crypt cells)) (UniProt P45481)
[3] = molecular target: p300 S89A (knock-in point mutant of mouse p300) (mouse (endogenous in intestinal crypt cells)) (UniProt B2RWS6)

Amino acid sequences for entries named in this document (tags omitted). A change or cut given only in a name is not applied to a line headed by its entry.
UniProt B2RWS6: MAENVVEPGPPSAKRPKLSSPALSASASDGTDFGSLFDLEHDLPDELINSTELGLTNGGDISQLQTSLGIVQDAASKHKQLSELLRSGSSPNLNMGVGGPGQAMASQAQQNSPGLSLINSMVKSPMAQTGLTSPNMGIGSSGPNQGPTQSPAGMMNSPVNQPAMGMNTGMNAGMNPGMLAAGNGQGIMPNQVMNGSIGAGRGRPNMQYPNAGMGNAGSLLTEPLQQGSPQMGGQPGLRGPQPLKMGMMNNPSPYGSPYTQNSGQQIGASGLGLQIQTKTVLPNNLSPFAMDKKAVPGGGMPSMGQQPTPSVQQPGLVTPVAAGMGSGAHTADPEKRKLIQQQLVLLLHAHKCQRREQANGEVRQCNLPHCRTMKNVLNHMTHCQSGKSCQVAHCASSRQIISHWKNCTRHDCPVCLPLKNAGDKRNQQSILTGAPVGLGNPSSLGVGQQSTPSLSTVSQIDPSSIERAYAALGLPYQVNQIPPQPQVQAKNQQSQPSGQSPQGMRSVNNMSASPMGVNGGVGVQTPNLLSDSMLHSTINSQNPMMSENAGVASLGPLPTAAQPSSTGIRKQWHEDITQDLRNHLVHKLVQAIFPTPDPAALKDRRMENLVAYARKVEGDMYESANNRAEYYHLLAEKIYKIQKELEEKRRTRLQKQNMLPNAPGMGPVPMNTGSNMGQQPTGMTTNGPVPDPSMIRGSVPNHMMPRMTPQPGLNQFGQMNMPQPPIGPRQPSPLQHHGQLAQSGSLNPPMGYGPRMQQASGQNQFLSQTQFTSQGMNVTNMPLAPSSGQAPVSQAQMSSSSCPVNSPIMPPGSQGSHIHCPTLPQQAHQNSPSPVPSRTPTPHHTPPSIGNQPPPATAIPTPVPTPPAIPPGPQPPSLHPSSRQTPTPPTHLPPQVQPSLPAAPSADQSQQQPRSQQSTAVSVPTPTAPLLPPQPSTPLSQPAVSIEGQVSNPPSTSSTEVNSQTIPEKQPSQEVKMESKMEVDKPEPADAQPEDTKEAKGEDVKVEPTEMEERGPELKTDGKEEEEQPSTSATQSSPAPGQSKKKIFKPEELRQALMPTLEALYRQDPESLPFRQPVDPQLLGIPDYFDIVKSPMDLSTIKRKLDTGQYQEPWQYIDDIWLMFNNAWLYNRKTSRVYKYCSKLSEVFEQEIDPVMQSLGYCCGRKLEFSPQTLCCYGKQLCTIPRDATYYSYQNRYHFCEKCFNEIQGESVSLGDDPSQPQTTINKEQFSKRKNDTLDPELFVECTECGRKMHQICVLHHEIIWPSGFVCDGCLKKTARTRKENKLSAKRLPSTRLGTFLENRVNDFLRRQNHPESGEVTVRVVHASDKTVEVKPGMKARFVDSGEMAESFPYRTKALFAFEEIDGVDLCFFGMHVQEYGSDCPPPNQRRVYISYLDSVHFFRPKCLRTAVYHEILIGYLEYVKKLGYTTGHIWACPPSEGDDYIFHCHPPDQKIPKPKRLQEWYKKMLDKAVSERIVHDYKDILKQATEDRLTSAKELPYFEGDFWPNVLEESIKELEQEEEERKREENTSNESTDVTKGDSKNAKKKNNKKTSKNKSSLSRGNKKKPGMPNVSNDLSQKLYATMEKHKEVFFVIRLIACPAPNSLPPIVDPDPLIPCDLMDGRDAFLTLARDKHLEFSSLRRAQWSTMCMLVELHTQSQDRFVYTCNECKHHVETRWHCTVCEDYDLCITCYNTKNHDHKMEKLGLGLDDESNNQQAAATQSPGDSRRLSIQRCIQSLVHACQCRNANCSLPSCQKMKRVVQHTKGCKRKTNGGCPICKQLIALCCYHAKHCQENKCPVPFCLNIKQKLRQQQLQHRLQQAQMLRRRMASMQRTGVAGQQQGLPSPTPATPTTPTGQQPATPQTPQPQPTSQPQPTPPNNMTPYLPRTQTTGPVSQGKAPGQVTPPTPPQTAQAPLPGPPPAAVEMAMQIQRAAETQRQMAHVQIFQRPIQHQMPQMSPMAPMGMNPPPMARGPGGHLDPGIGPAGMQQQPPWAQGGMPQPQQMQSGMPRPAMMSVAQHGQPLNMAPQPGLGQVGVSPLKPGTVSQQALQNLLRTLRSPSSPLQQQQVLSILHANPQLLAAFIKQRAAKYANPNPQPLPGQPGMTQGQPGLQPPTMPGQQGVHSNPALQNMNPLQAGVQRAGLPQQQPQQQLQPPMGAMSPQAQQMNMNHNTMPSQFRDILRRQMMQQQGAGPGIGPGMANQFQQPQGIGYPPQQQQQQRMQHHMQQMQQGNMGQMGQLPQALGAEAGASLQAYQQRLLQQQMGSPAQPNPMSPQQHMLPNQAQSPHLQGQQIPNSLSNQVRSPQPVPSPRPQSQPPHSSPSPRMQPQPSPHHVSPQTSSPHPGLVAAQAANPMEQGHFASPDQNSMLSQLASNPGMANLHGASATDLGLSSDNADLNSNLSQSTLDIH
UniProt P45481: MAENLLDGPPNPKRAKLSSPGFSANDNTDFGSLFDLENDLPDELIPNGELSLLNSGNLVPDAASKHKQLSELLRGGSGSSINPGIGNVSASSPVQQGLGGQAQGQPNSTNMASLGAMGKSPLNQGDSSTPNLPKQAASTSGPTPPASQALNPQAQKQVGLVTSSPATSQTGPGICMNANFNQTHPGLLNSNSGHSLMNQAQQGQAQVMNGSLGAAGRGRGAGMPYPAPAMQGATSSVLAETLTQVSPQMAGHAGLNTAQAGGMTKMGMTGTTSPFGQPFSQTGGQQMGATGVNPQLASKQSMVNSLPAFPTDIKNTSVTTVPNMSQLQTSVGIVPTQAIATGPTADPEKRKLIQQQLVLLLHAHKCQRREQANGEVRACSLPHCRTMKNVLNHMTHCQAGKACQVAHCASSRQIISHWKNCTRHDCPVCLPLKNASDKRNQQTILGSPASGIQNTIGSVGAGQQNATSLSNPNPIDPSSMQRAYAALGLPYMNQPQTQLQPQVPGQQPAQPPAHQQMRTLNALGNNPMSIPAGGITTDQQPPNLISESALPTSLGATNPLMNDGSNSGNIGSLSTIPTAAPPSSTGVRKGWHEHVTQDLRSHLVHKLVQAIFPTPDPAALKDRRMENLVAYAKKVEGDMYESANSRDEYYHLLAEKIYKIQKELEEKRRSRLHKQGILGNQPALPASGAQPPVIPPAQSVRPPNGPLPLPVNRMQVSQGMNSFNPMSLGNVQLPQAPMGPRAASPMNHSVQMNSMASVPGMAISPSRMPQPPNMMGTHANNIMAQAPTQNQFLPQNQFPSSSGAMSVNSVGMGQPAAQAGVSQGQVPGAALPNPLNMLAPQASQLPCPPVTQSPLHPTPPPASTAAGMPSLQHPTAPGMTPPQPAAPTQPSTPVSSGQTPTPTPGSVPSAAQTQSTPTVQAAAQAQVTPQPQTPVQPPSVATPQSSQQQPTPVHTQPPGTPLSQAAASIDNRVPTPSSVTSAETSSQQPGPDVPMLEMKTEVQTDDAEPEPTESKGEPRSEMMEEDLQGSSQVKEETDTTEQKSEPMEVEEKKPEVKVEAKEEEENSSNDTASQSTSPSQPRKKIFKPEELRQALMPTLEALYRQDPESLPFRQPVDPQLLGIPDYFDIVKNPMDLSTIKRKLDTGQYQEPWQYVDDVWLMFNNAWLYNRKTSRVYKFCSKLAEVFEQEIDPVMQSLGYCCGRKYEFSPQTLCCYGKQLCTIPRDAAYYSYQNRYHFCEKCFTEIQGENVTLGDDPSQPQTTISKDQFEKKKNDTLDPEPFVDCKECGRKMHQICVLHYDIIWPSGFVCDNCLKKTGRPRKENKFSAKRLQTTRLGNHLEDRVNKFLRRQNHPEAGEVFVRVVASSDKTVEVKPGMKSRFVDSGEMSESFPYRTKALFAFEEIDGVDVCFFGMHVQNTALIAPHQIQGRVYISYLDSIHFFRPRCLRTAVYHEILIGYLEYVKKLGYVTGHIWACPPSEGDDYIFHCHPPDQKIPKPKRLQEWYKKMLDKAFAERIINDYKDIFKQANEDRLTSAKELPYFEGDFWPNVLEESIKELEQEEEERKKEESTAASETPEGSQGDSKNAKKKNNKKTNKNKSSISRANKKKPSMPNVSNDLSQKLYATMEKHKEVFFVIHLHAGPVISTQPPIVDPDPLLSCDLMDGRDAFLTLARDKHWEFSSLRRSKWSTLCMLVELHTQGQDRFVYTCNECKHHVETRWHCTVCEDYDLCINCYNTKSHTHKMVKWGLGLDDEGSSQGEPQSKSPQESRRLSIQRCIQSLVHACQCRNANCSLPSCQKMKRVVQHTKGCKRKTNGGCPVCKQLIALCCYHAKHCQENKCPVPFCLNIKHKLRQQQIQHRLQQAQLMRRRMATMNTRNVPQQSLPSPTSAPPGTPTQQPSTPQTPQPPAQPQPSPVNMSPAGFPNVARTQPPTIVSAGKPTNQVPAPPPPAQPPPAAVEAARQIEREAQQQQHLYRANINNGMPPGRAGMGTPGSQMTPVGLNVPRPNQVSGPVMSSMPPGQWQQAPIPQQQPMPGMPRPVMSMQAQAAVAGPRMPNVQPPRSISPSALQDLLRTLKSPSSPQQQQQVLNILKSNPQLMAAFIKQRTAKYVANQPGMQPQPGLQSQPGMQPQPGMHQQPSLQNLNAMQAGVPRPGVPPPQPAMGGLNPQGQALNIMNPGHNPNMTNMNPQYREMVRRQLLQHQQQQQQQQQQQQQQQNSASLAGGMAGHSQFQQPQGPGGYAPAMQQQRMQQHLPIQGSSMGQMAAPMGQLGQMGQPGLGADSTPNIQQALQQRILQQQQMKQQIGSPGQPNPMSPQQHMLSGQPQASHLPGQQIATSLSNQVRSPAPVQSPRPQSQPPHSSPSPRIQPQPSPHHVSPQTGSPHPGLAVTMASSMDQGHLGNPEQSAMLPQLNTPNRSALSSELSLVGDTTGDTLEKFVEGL
UniProt P62259: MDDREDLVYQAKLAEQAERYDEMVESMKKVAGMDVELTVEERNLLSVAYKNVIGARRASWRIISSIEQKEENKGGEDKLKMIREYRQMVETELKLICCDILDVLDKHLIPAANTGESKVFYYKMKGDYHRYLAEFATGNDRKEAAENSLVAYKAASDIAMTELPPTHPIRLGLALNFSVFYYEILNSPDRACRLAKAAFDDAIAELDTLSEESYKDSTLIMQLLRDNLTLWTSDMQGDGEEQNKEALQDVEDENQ
UniProt Q02248: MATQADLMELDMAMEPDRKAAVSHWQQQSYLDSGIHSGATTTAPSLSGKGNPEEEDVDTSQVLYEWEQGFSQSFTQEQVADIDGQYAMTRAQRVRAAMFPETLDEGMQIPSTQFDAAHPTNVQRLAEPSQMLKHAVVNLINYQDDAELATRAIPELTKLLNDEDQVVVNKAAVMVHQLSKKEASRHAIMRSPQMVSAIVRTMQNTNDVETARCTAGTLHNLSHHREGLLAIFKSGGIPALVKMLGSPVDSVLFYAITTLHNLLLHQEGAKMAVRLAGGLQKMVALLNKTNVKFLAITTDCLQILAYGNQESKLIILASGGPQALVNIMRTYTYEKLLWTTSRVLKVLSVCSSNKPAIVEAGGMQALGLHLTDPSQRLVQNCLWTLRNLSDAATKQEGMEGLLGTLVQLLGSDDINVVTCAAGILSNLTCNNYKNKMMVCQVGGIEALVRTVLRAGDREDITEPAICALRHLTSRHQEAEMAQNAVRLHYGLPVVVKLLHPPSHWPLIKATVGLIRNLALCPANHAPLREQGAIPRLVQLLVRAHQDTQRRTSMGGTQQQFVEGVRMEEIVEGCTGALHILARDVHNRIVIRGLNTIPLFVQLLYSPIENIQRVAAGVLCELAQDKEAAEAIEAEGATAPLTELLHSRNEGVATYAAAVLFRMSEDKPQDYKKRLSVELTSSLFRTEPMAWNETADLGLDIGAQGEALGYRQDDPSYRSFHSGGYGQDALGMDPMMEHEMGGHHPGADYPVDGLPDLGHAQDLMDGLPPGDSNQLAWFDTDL

Substance | binding [1] | binding [2] | binding [3]
14-3-3 epsilon (from UniProt P62259 1-255) | binds |  | 
β-catenin (from UniProt Q02248 1-781) | binds | binds | binds
